# Experimental data: PubChem BioAssay AID504793 (Drosophila RNAi Screening Center, 2011)
# Screen: 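Genes required for cells to halt at G2/M after double-strand DNA breaks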 (primary screen)
# Cell system: Drosophila S2R+ cells
# Knock-down reagent: long dsRNA against Drosophila genes, about 0.25 µg dsRNA per well
# Duration: 4 days of dsRNA, then 4 hours of drug before read-out
# Conditions: doxorubicin 0.5 µM for 4 hours to cause double-strand breaks, in cells also given a low, harmless dose of dsRNA against nbs to sensitise the assay
# Measured: 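Mitotic index as the number of phospho-histone H3-positive cells in each well following doxorubicin, given as raw counts without normalisation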
# Scale: mitotic cells: higher = more cells in mitosis, weaker G2 arrest
# Hit rule: 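Genes are called active only when high mitotic counts were reproduced with independent dsRNAs and mitosis was checked for delay without damage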
# Calls: active = confirmed in follow-up tests; inactive = not confirmed
# In all, the deposit lists about 23,000 reagents; shown is an unselected part of those with a known target gene and a result. In the full data, 62 (0.27%) got an active call. 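Calls come from follow-up tests whose scores are not deposited, so confirmed genes may have low counts here; counts are not normalised per plate.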 The raw values are shown without normalisation. Names joined by + are all predicted targets of the reagent.
target gene,dsRNA,"mitotic cells, replicate 1","mitotic cells, replicate 2",Outcome
obst-E (GeneID 33806),DRSC02128,3,,inactive
obst-E (GeneID 33806),DRSC25834,5,,inactive
pie (GeneID 44315),DRSC03590,4,,inactive
eys (GeneID 3771890),DRSC00402,3,,inactive
eys (GeneID 3771890),DRSC00403,5,,inactive
eys (GeneID 3771890),DRSC00695,5,,inactive
CG1271 (GeneID 38364),DRSC08290,5,,inactive
CG8420 (GeneID 41097),DRSC16418,3,,inactive
Orct (GeneID 42891),DRSC16777,6,,inactive
Orct (GeneID 42891),DRSC25574,2,,inactive
Npc2d (GeneID 41232),DRSC14551,7,,inactive
Npc2d (GeneID 41232),DRSC28011,6,,inactive
CG11356 (GeneID 32178),DRSC19401,8,,inactive
Smyd4-4 (GeneID 36299),DRSC05956,5,,inactive
CG17344 (GeneID 35185),DRSC02607,6,,inactive
Naam (GeneID 42348),DRSC16252,5,,inactive
lncRNA:bxd (GeneID 3772220),DRSC13176,41,11,inactive
lncRNA:bxd (GeneID 3772220),DRSC28062,7,5,inactive
lncRNA:bxd (GeneID 3772220),DRSC39127,9,,inactive
Lgr3 (GeneID 43098),DRSC15704,17,,inactive
Lgr3 (GeneID 43098),DRSC15706,11,,inactive
CG15141 (GeneID 35044),DRSC02441,4,,inactive
CG15141 (GeneID 35044),DRSC02442,6,,inactive
CG15141 (GeneID 35044),DRSC29031,7,,inactive
CG6695 (GeneID 42937),DRSC16098,7,,inactive
CG6695 (GeneID 42937),DRSC24623,8,,inactive
CG7514 (GeneID 38571),DRSC08597,5,,inactive
CG7514 (GeneID 38571),DRSC25670,3,,inactive
RpL7-like + CG34164,DRSC02836,7,14,inactive
RpL7-like + CG34164,DRSC02837,3,,inactive
CG31689 (GeneID 326154),DRSC24715,7,,inactive
CG13005 (GeneID 32670),DRSC19524,8,,inactive
exd (GeneID 32567),DRSC20330,19,,inactive
exd (GeneID 32567),DRSC30099,1,,inactive
CG17477 (GeneID 42067),DRSC15239,6,,inactive
CG17477 (GeneID 42067),DRSC26513,8,,inactive
ymp (GeneID 43088),DRSC13720,9,,inactive
ymp (GeneID 43088),DRSC14482,9,,inactive
PIG-Wb (GeneID 38220),DRSC08526,6,,inactive
Hsc70-3 (GeneID 32133),DRSC20253,11,,inactive
Hsc70-3 (GeneID 32133),DRSC25105,13,,inactive
CG4477 (GeneID 39058),DRSC10425,7,,inactive
CG6325 (GeneID 41268),DRSC16020,9,,inactive
CG30037 (GeneID 246409),DRSC07305,3,,inactive
sff (GeneID 39732),DRSC10590,2,,inactive
Six4 (GeneID 40297),DRSC11881,1,,inactive
Six4 (GeneID 40297),DRSC29889,5,,inactive
CG30423 (GeneID 246605),DRSC04013,7,,inactive
CG5966 (GeneID 31532),DRSC18394,6,,inactive
CG33095 (GeneID 43012),DRSC14441,10,,inactive
COX6AL2 (GeneID 40066),DRSC10082,5,,inactive
CG12016 + Dpm2,DRSC08224,4,,inactive
CG12016 + Dpm2,DRSC25292,3,,inactive
Cyp4g15 (GeneID 32093),DRSC20240,9,,inactive
CG13438 (GeneID 37348),DRSC06398,4,,inactive
CG31301 (GeneID 41865),DRSC22164,11,,inactive
drm (GeneID 49638),DRSC00277,6,,inactive
ct (GeneID 44540),DRSC18757,19,,inactive
ct (GeneID 44540),DRSC25100,8,,inactive
Jon66Cii (GeneID 38953),DRSC10778,5,,inactive
Jon66Cii (GeneID 38953),DRSC28611,12,,inactive
NAT1 (GeneID 46020),DRSC06854,6,,inactive
NAT1 (GeneID 46020),DRSC30053,3,,inactive
CG14304 (GeneID 42232),DRSC25016,7,,inactive
CG9981 (GeneID 32609),DRSC20225,5,,inactive
Gbp2 (GeneID 36937),DRSC06069,3,,inactive
CG13748 (GeneID 35896),DRSC06419,7,,inactive
LManIII (GeneID 34203),DRSC03221,2,,inactive
LManIII (GeneID 34203),DRSC29001,7,,inactive
CG9886 (GeneID 33431),DRSC00732,5,,inactive
CG9886 (GeneID 33431),DRSC26380,4,,inactive
kcc (GeneID 37800),DRSC04316,8,,inactive
kcc (GeneID 37800),DRSC04516,4,,inactive
Aef1 (GeneID 40370),DRSC11605,6,,inactive
stck (GeneID 40999),DRSC17070,7,,inactive

Entries listed so far whose gene name begins with H or h:
target gene,dsRNA,"mitotic cells, replicate 1","mitotic cells, replicate 2",Outcome
Hsc70-3 (GeneID 32133),DRSC20253,11,,inactive
Hsc70-3 (GeneID 32133),DRSC25105,13,,inactive
